Article PMC7001640
Read-outs that look alike come from different tables or passages of the source. No constants are given. Whether binding was seen depends on the method and setting. For part of these data: Binding seen in cells or lysates may run through a third protein. Some results given as binding are weak or reduced against the parent protein; the word gives no strength. For part of these data: Where a sequence is shown, tags or fusion partners need not be part of it. Values belong to the molecule of their own block, whether it stands above or below them.

By UniProt entry, the sequences of proteins in these tests, tags left out.
UniProt Q07100: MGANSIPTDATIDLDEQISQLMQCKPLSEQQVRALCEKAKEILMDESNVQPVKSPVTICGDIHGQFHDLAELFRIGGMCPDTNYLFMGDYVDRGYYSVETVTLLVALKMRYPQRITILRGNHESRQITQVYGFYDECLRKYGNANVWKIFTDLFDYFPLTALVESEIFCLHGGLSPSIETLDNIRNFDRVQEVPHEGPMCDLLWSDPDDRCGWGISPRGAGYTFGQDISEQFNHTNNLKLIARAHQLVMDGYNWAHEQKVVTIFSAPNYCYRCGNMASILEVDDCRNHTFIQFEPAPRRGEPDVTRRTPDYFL
UniProt P48578: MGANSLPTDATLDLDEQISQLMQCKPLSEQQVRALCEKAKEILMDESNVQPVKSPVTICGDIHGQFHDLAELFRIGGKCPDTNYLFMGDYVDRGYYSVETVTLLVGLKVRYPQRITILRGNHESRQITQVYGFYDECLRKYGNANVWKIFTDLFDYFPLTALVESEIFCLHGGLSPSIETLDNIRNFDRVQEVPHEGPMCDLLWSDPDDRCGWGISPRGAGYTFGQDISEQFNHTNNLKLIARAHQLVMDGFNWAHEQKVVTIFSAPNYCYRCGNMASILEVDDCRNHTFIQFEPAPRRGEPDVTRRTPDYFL
UniProt Q07099: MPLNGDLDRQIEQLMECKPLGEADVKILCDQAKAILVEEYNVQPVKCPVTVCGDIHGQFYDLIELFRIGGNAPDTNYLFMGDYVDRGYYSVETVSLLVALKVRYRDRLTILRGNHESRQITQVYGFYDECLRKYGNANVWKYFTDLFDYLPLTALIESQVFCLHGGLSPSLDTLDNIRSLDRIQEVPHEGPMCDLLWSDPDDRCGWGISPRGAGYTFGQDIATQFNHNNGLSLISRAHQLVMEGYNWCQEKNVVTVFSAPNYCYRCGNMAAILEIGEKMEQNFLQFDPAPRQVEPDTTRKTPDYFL
UniProt Q07098: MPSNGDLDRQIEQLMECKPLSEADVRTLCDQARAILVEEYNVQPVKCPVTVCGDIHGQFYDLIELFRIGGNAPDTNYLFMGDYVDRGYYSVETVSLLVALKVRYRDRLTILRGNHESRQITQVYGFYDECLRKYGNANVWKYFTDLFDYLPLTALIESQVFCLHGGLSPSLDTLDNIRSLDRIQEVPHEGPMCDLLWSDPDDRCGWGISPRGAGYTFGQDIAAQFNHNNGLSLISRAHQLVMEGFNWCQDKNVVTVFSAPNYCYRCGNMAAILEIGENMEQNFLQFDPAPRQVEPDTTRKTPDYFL
UniProt O04951: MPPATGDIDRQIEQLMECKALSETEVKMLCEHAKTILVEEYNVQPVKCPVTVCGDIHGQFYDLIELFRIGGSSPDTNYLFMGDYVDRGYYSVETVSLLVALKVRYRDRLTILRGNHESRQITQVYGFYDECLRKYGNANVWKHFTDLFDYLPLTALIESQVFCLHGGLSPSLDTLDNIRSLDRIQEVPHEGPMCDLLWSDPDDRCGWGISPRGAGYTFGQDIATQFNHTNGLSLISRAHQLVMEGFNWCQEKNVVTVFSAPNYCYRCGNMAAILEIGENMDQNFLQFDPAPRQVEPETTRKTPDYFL
UniProt O49686: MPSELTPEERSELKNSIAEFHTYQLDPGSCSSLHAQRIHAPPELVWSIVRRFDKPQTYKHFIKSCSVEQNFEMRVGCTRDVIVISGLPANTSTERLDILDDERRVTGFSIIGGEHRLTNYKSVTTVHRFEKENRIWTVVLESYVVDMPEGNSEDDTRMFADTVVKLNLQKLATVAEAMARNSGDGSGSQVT
UniProt Q8VZS8: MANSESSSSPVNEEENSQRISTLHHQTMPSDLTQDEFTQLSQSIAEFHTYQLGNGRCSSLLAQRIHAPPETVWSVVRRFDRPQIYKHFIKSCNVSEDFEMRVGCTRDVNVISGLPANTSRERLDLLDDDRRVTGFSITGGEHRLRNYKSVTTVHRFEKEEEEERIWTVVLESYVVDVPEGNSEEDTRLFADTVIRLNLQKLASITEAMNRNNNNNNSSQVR

What was measured:
[1] = biological target: PP2A catalytic subunit PP2AC3 (Arabidopsis thaliana) (UniProt Q07100); assay: co-IP; in vivo; for PYL1 with or without treatment with 10 x 10^-6 M ABA for 4 h
[2] = biological target: PP2A catalytic subunit PP2AC4 (Arabidopsis thaliana) (UniProt P48578); assay: as above
[3] = biological target: T1, PP2A scaffolding A subunit ROOTS CURL IN … ACID1 (RCN1) (Arabidopsis thaliana) (UniProt Q38845); assay: as above
T1 sequence: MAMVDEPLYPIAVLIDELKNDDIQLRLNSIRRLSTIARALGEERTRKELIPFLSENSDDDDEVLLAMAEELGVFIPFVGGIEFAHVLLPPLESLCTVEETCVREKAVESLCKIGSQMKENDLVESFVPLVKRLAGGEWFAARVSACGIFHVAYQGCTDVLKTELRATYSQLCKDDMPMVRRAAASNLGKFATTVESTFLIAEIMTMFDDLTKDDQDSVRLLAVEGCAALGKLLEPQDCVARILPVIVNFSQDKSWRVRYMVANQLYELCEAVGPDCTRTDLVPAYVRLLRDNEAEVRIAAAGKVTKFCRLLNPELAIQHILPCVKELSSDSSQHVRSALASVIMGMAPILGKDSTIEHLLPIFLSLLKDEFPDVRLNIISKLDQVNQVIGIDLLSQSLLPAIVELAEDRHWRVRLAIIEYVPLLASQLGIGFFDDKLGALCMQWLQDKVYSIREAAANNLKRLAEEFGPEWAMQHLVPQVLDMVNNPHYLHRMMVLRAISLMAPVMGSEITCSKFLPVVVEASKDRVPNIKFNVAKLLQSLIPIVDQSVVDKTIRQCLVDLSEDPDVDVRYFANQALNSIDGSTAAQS

[4] = biological target: PP2AC4, luciferase complementation fusion (Arabidopsis thaliana) (UniProt P48578); assay: split reporter; firefly luciferase complementation imaging (LCI); Agrobacterium-mediated transient coexpression in Nicotiana benthamiana leaves; for PYL1 with PP2AC4 with or without ABA
[5] = biological target: GST-PP2AC3 (Arabidopsis thaliana) (UniProt Q07100); assay: pull-down; in vitro; GST fusions as bait, PYL1-His as prey; both purified
[6] = biological target: GST-PP2AC4 (Arabidopsis thaliana) (UniProt P48578); assay: as above
[7] = biological target: PP2AC1, yeast two-hybrid fusion (Arabidopsis thaliana) (UniProt Q07099); assay: two-hybrid; yeast; 4D selective medium lacking Trp/Leu/His/Ade; with or without 50 x 10^-6 M ABA
[8] = biological target: PP2AC2, yeast two-hybrid fusion (Arabidopsis thaliana) (UniProt Q07098); assay: as above
[9] = biological target: PP2AC3, yeast two-hybrid fusion (Arabidopsis thaliana) (UniProt Q07100); assay: as above
[10] = biological target: PP2AC4, yeast two-hybrid fusion (Arabidopsis thaliana) (UniProt P48578); assay: as above
[11] = biological target: PP2AC5, yeast two-hybrid fusion (Arabidopsis thaliana) (UniProt O04951); assay: as above
[12] = biological target: PP2A catalytic subunit PP2AC3 (Arabidopsis thaliana) (UniProt Q07100); assay: co-IP; proteins extracted from cotransformed Arabidopsis protoplasts; in vivo
[13] = biological target: PP2A catalytic subunit PP2AC4 (Arabidopsis thaliana) (UniProt P48578); assay: as above
[14] = biological target: PP2AC3, luciferase complementation fusion (Arabidopsis thaliana) (UniProt Q07100); assay: split reporter; firefly luciferase complementation imaging (LCI); Agrobacterium-mediated transient coexpression in Nicotiana benthamiana leaves; for PYL1 with PP2AC4 with or without ABA
[15] = biological target: PP2AC4, luciferase complementation fusion (Arabidopsis thaliana) (UniProt P48578); assay: as above; remark: listed apart in the source

- binding [1]: binds
- binding [2]: binds
Molecule: PYR1 ABA receptor (from UniProt O49686 1-191)

- binding [1]: binds
- binding [2]: binds
- binding [3]: no binding
Molecule: PYL1 ABA receptor (from UniProt Q8VZS8 1-221)

- binding [4]: binds
Molecule: PYL1, luciferase complementation fusion (from UniProt Q8VZS8 1-221) (receptor)

- binding [5]: binds
- binding [6]: binds
Molecule: PYL1-His (from UniProt Q8VZS8 1-221) (receptor)

- binding [7]: binds
- binding [8]: binds
- binding [9]: binds
- binding [10]: binds
- binding [11]: binds
Molecule: PYL1, yeast two-hybrid fusion (from UniProt Q8VZS8 1-221) (receptor)

- binding [1]: binds
- binding [2]: binds
B1: PYL4 ABA receptor (receptor, UniProt O80920 1-207)
chain: MLAVHRPSSAVSDGDSVQIPMMIASFQKRFPSLSRDSTAARFHTHEVGPNQCCSAVIQEISAPISTVWSVVRRFDNPQAYKHFLKSCSVIGGDGDNVGSLRQVHVVSGLPAASSTERLDILDDERHVISFSVVGGDHRLSNYRSVTTLHPSPISGTVVVESYVVDVPPGNTKEETCDFVDVIVRCNLQSLAKIAENTAAESKKKMSL

- binding [1]: binds
- binding [2]: binds
B2: PYL2 ABA receptor (receptor, UniProt O80992 1-190)
chain: MSSSPAVKGLTDEEQKTLEPVIKTYHQFEPDPTTCTSLITQRIHAPASVVWPLIRRFDNPERYKHFVKRCRLISGDGDVGSVREVTVISGLPASTSTERLEFVDDDHRVLSFRVVGGEHRLKNYKSVTSVNEFLNQDSGKVYTVVLESYTVDIPEGNTEEDTKMFVDTVVKLNLQKLGVAATSAPMHDDE

- binding [12]: binds
- binding [13]: binds
B3: PINOID (PID) kinase (enzyme, UniProt O64682 1-438)
chain: MLRESDGEMSLGTTNSPISSGTESCSSFSRLSFDAPPSTIPEEESFLSLKPHRSSDFAYAEIRRRKKQGLTFRDFRLMRRIGAGDIGTVYLCRLAGDEEESRSSYFAMKVVDKEALALKKKMHRAEMEKTILKMLDHPFLPTLYAEFEASHFSCIVMEYCSGGDLHSLRHRQPHRRFSLSSARFYAAEVLVALEYLHMLGIIYRDLKPENILVRSDGHIMLSDFDLSLCSDSIAAVESSSSSPENQQLRSPRRFTRLARLFQRVLRSKKVQTLEPTRLFVAEPVTARSGSFVGTHEYVAPEVASGGSHGNAVDWWAFGVFLYEMIYGKTPFVAPTNDVILRNIVKRQLSFPTDSPATMFELHARNLISGLLNKDPTKRLGSRRGAAEVKVHPFFKGLNFALIRTLTPPEIPSSVVKKPMKSATFSGRSSNKPAAFDYF

- binding [14]: binds
- binding [15]: binds
B4: PINOID (PID) kinase, luciferase complementation fusion (enzyme, UniProt O64682 1-438)
chain: B3 chain
